Like-named read-outs stand apart in the source and are kept apart here.
How the values were obtained:
human thrombin [1] = target: T1, human thrombin (Homo sapiens, UniProt P00734); assay: Inhibition of human thrombin-catalyzed hydrolysis of Chromozym TH; type: biochemical; conditions: 25 °C, pH 7.4
T1 construct: purchased National Institute for the Control of Pharmaceutical and Biological Products (Beijing, China)
Experimental: The inhibition constant (Ki) was determined as reported previously. A 0.05 mL of peptide solution (concentration 10, 25, 50, 100, 150, 500 and 1000 nM, respectively) was added to 0.4 mL mixture of Hepes buffer (10 mM Hepes, 10 mM Tris, 0.1 M NaCl, 0.1% PEG 6000, pH 7.4) and bovine or human thrombin (0.25 NIH). The resulting solution was incubated at 25 °C for 2 min, followed by the addition of 0.05 mL Chromozym TH (concentration 25, 33, 40, 50, 100, 125, 200, 330, 500, and […], respectively). The absorbance at 405 nm was measured using a Beckman DU640 spectrometer. The inhibition constant (Ki) was determined using the following equation (Eq.1) originally developed for competitive inhibition processes[25]:
Herein, S is the initial substrate concentration; I is the inhibitor concentration; v is the initial steady-state velocity; Vmax is the limiting maximal velocity; and Km is the dissociation constant of the complex.

human thrombin [2] = target: T1, human thrombin; parameters: method as in PMID 24354772; conditions: Chromozym TH, excerpted from a previously published study ref 15; cited from earlier work

Structure (SMILES)	Ki (human thrombin [1]) [nM]	Ki (human thrombin [2]) [nM]
CCCCCCCCCCCCCCCCCC(=O)NCCCC[C@H](NC(=O)CNC(=O)[C@@H]1CCCN1C(=O)[C@H](CCCNC(=N)N)NC(=O)[C@@H]1CCCN1C(=O)[C@H](N)Cc1ccccc1)C(=O)NCC(=O)NCC(=O)N[C@@H](CCC(N)=O)C(=O)NCC(=O)N[C@@H](CC(=O)O)C(=O)N[C@@H](Cc1ccccc1)C(=O)N[C@@H](CCC(=O)O)C(=O)N1CCC[C@H]1C(=O)N[C@H](C(=O)N1CCC[C@H]1C(=O)N[C@@H](CCC(=O)O)C(=O)N[C@@H](CC(=O)O)C(=O)N[C@@H](C)C(=O)N[C@@H](Cc1ccc(O)cc1)C(=O)N[C@@H](CC(=O)O)C(=O)N[C@@H](CCC(=O)O)C(N)=O)[C@@H](C)CC [Peptide S2]	11.7 ± 0.46	–
CC[C@H](C)[C@H](NC(=O)[C@@H]1CCCN1C(=O)[C@H](CCC(=O)O)NC(=O)[C@H](Cc1ccccc1)NC(=O)[C@H](CC(=O)O)NC(=O)CNC(=O)[C@H](CCC(N)=O)NC(=O)CNC(=O)CNC(=O)CNC(=O)CNC(=O)[C@@H]1CCCN1C(=O)[C@H](CCCNC(=N)N)NC(=O)[C@@H]1CCCN1C(=O)[C@H](N)Cc1ccccc1)C(=O)N1CCC[C@H]1C(=O)N[C@@H](CCC(=O)O)C(=O)N[C@@H](CC(=O)O)C(=O)N[C@@H](C)C(=O)N[C@@H](Cc1ccc(O)cc1)C(=O)N[C@@H](CC(=O)O)C(=O)N[C@@H](CCC(=O)O)C(N)=O [Peptide 1]	–	5.8 ± 0.55
